Laboratory results reported in US10544134B2, “4-substituted coumarin derivatives and preparation methods and uses thereof” (SI CHUAN UNIVERSITY, priority 2015, dated 2020).

Tests used:
HCT-8/V = assay: Tumor cell proliferation inhibitory activity test in vitro (MTT); type: cell-based; conditions: Homo sapiens, drug-resistant cells, 72 hours, cells marked (μM)
[1] = test system: ovarian cancer cell A2780s; assay: as above; type: cell-based; conditions: Homo sapiens, sensitive cells, 72 hours
From the text: Human non-small cell lung cancer cell line NCI-H460, human small cell lung cancer cell line NCI-H446, human hepatocellular carcinoma cell strain HepG2, human colon carcinoma cell strain HCT116, human prostate cancer PC-3, human melanoma A375, colon carcinoma cell HCT-8, breast cancer cell MCF-7, ovarian cancer cell A2780s, drug-resistant ovarian cancer cell A2780/T, drug-resistant colon cancer cell HCT-8/T and doxorubicin-resistant breast cancer cell MCF-7/ADR are obtained from American Type Culture Collection (ATCC) and are cultured and preserved by the cell bank of State Key Laboratory of Biotherapy of Sichuan University. Above tumor cells are routinely cultured in DMEM culture medium containing 10% fetal bovine serum, 100 U·mL-1 penicillin and 100 mg·L−1 streptomycin, and in an incubator at 37° C. and with saturated humidity and 5% CO2 concentration. […]
Discard the supernatant after 72 hours, add 200 μL freshly prepared serum-free medium containing 0.2 mg/mL MTT into each well, continue to incubate at 37° C. for 1-4 hours, then stop incubation, carefully remove the culture supernatant in the wells and add 200 uL DMSO (dimethyl sulfoxide), oscillate with a miniature ultrasonic oscillator for 15-20 minutes to make the crystal fully dissolved and mixed. Determine OD values using a microplate reader at 570 nm with a reference wavelength of 450 nm. […]

COc1cc2c(c(OC)c1OC)-c1ccc(OC)c(=O)cc1[C@@H](NC(C)=O)CC2 [Colchicine, colchicine]
IC50 (HCT-8/V): 0.144 ± 0.032 µM
IC50 [1]: 30.8 ± 9.88 nM
